Data from patent EP4644419A1.

Sequences of proteins named here, by UniProt entry; tags and fusion partners are left off. A change or cut given only in a name is not applied to a line headed by its entry.
UniProt Q6DKI7: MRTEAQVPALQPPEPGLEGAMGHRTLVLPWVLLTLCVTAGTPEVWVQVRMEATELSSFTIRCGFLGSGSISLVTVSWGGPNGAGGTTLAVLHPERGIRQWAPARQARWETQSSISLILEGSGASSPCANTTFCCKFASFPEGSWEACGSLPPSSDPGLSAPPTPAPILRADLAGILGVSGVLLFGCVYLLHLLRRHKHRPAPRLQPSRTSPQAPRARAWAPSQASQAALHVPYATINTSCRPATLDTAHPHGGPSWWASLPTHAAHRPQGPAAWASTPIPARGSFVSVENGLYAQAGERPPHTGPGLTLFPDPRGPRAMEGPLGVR

How the values were obtained:
[1] = biological target: monkey antigen protein (monkey CD112R, Uniprot ID: A0A2K5WVV8) (monkey); test: ELISA, monkey antigen protein
[2] = biological target: human CD112R antigen protein huCD112R-His (Acro Biosysterm, PVG-H52H4) (human) (UniProt Q6DKI7); test: ELISA, huCD112R-His coated on plate

Binder | binding [1] | binding [2]
C119 (antibody, human IgG1, kappa, V domains shown) VH: EVKLVESGGGLVQPGGSLKLSCVASGFTFNTYIMSWVRQTPEKRLELVADISNSGGNTYYSDTVKGRFTISRDNAKNTLYLQMSSLKSEDTAMYYCARPDNWDPFVYWGQGTLVTVSA VL: DIQMTQSSSSFSVSLGDRVTITCKASEDIYARLAWYQQKPGNAPRLLISGATSLETGVPSRFSGSGSGKNYTLSITSLQTEDVGTYYCQQHWSTPWTFGGGTNLEIKR | binds | binds
C152 (antibody, human IgG1, kappa, V domains shown) VH: QVQLQQSGTILARPGASVKMSCRASDYTFTDYWIQWIKQRPGQGLEWIGAIFPENGDTRYTQKFKGRATLTADKSSSTAYMQVNSLTSEDSAVYYCATFINYVDYWGQGTTLTVSS VL: QIVLIQSPAIMSASPGEKVTMTCSASSSVNNIHWYQQKSGTSPKRWIYDTTKLTSGVPARFSGSGSGTSYSLTISSMEAEDAATYYCQQWNINPYTFGGGTKLEIKR | binds | binds
C146 (antibody, human IgG1, kappa, V domains shown) VH: EVQLQQSGPELVKPGSSVKISCEASGYTFADYNVDWVKQSHGKSLEWIGAINPNDGGTSYNQKFEGKATLTVDKSSTTVYMELRSLTSEDSAVYYCARWVNNDWYFDVWGTGTTVTVSS VL: DIVMTQSQKFMSTSVGDRVSITCKASQNVRSAVDWYQQKPGQSPKTLIHSASSRHTGVPDRFTGSGSGTDFTLTISNIQSEDLADYFCLQHWNYPYTFGGGTKLEVKR | binds | binds
C120 (antibody, human IgG1, kappa, V domains shown) VH: EVQLQQSGPEVVKPGASVKISCKASGNTLTDYFINWVKQSHGKNLEWIGDINPDNGAGNYNQKFKGKATLTVDKSSGTAFMGLRSLTSEDSAVYYCATLYFDYWGQGTTLTVSS VL: DIVMTQSPSSLSVSTGEKVTMSCRSSQSLLNSGNQKNYLAWYQQKPGQPPKLLIYGASTRESGVPDRFTGSGSGTDFTLTISSVQAEDLAIYYCQNAHTSPYTFGGGTRLEIKR | binds | binds
C121 (antibody, human IgG1, kappa, V domains shown) VH: EVQLQQSGPEVVKPGASVKISCKASGNTFTDYFINWVKQSHGKSLEWIGDINPDNGGTNYNQKFKGKATLTVDKSSGTAFMGLRSLTSEDSAVYYCATLYFDYWGQGTSLTVSS VL: DIVMTQSPSSLSVSAGEKVTMSCKSSQSLLNSGNQKNYLAWYQQKPGQPPKLLIYGASTRESGVPDRFTGSGSGTDFTLTISSVQAEDLAVYYCQNAHSSPYTFGGGTRLEIKR | binds | binds
C7 (antibody, human IgG1, kappa, V domains shown) VH: EVQLQQSGPELVKPGASVKISCKASGYTLTDYYMNWVKQSHGKSLEWIGDINPNNGGTNFNQKFKGKATLTIDKSSSTTYMELRSLTSEDSAVYYCASLFFDYWGQGTTLTVSS VL: DIVMTQSPSSLSVSAGEKVTMSCKSSQSLLNSGNQKNYLAWYQQKPGQPPKLLIYGASTRESGVPDRFTGSGSGTDFTLTISSVQAEDLALYYCQNAHSSPYTFGGGTKLEIKR | binds | binds
C122 (antibody, human IgG1, kappa, V domains shown) VH: EVQLQQSGPEVVKPGASVKISCKASGNTFTDYFINWVKQRHGKSLEWIGDVNPDNGGTNYNQKFKGKATLTVDKSSGTAFMGLRSLTSEDSAVYYCATLFFDSWGQGTTLTVSS VL: DIVMTQSPSSLNVSAGEKVTMSCKSSQSLLNSGNQKNYLAWYQQKPGQPPKLLIYGASTRESGVPDRFTGSGSGTDFTLTISSVQAEDLALYYCQNAHSSPYTFGGGTKLEIKR | binds | binds
C4 (antibody, human IgG1, kappa, V domains shown) VH: EVQLQQSGPELVKPGASVKISCKASGYTFTDYFMNWVKQSHGKSLEWIGDIIPNNDSPNYNQKFKGKATLTVDKSSNTAYMELRSLTSEDSAVYYCASGYFDVWGTGTTVTVSS VL: DIVMTQSPSSLSVSAGEKVTMSCKSSQSLLNSGNQKNFLAWYQQKPGQPPKLLIYGTSTRESGVPDRFTGSGSGTDFTLTISSVQAEDLAVYYCQNDHSYPWTFGGGTKLEIKR | binds | binds
C138 (antibody, human IgG1, kappa, V domains shown) VH: EVQLVESGGGLVKPGGSLKLSCAASGFTFSSYAMSWVRQTPAKRLEWVATITSGDIRTYYPDTVKGRFTISRDNAKNTLYLQMRSLRSEDTAMYYCVGHDDFHFYAMDYWGQGTSVTVSS VL: QIVLTQSPAIMSASPGEKVTMTCSASSSVSYLYWYQQKPGSSPRLLIYDTSNLASGVPVRFSGSGSGTSYSLTLSRMEAEDAATYYCQQWSSYPLTFGAGTKLELKR | binds | binds
C143 (antibody, human IgG1, kappa, V domains shown) VH: EVQLVESGGGLVKPGGSLKLSCAASGFTFSNFAMSWVRQTPAMRLESVATIVNGGINTYYPDTVKGRFTVSRDNAKNTLYLQMSSLRSEDTAIYYCARHDDFLYYAMDYWGQGTSVTVSS VL: QIVLTQSPAIMSASPGEKVTMTCSASSSVNYMFWYQQKPGSSPRLLIYDTSNLASGVPVRFSGSGSGTSYSLTISRLEAEDAATYYCQQWTSYPLTFGAGTKLDLKR | binds | binds
C124 (antibody, human IgG1, kappa, V domains shown) VH: EVQLVESGGGLVKPGGSLKLSCAASGFTFSSFAMSWVRQTPAKRLESVATINNGGINTYYPDTVKGRFTVSRDNAKNTLYLQMSSLRSEDTAMYYCARHDDFLYYAMDYWGQGTSVTVSS VL: QIVLTQSPAIMSASPGEKVTMTCSASSSVSYMYWYQQKPGSSPRLLIYDTSNLASGVPVRFSGSGSGTSYSLTISRMEAEDAATYYCQQWTSYPLTFGAGTKLELKR | binds | binds

Continued, values first:

binding [1] | binding [2] | Binder
binds | binds | C116 (antibody, human IgG1, kappa, V domains shown) VH: EVKLVESGGGLVQPGGSLKLSCAVSGFTFSSYTMSWVRQTPEKRLELVAKISNSGGSTNYPDTVKGRFTLSRDNVKNTLYLQMSSLKSEDTAIYYCTRYSWDVYAMDYWGQGTSVTVSS VL: DIQMTQSPASLSASVGETVIITCRASENIYSYLAWYQQKQGKSPHLLVYNAETLVEGVPSRFSGSGSATQFSLKINSLQPEDFGTYYCQHHYGDPTFGGGTKLEIKR
binds | binds | C117 (antibody, human IgG1, kappa, V domains shown) VH: QVQLQQSGAELARPGASVKMSCKASGYTFTDYWMQWVKQRPGQGLEWIGAIFPGNGETRDTQKFKGRATLTADRSSSTAYIQLSSLTSEDSAVYYCATFNNYLDYWGQGTTLTVAS VL: QIVLTQSPAIMSASPGEKVTMTCSASSSVSYMHWYQQKSGASPKRWIYDTSKLTSGVPARFSGSGSGTSYSLTISNMEAEDAATYYCQQWISNPYTFGGGTKLEIKR
binds | binds | C136 (antibody, human IgG1, kappa, V domains shown) VH: DVQLVESGGGLVKPGGSLKLSCAASGFSFSENYMYWVRQTPEKRLEWVATISDGASYTYYPDNVKGRFTISRDTAKNNLYLQMSHLKSEDTAMYYCTRDELIAPFAYWGQGTLVTVSA VL: DIVMTQSHKFMSTSVGDRVSITCKASQDVGTAVAWFQQKPGQSPKLLIYWASTRHTGVPDRFTGSGSGTDFTLTISNVQSEDLADYFCQQYNSYPWTFGGGTKLEIKR
binds | binds | C145 (antibody, human IgG1, kappa, V domains shown) VH: EVQLQQSGPEVVKPGASVRISCKASGNTFTDFFINWVKQSHGKSLEWIGDVNPDSNGANYNQKFKGKATLTVDKSSGTAFMGLRSLTSEDSAVYYCATLFFDNWGQGTTLTVSS VL: DIVMTQSPSSLNVSAGEKVTMSCKSSQSLLNSGNQKNYLAWYQQKPGQPPKLLIYGASTRESGVPDRFTGSGSGTDFILTISSVQAEDLALYYCQNAHSSPYTFGGGTKLEIKR
binds | binds | C125 (antibody, human IgG1, kappa, V domains shown) VH: EVKLVESGGGLVQPGGSLKLSCAASGFTFSSYTMSWVRQTPEKRLELVAELSNSGGSFHYPDNVKGRFTISRDNAKNTLYLQMSSLKSEDTAMYYCARHNWDVYAMDYWGQGTSVTVSS VL: DIQMSQSPASLSASVGETVTITCRASENVNSYLAWYQQKQGRSPQFLVYNAQTLAEGVPSRFSGGGSGTQFSLKINSLQPEDFGSYYCQHHYGNPTFGGGTKLEIKR
binds | binds | C1 (antibody, human IgG1, kappa, V domains shown) VH: QVHLQQSGPELVKPGASLKISCKASGYTFTDYYLNWVKQRPGQGLEWIGWIFPGSESTFYNEKFKGKATLTVDKSSSTAYMLLNSLTSEDSAVYFCTRDGGLRGPFDYWGQGTTLTVSS VL: DIQLTQSPSSLSASLGGKVTITCKASQDINKYIAWCQHKPGKGPRLLIHYTSTLHPGIPSRFSGSGSGRDYSFSISNLEPEDSATYYCLQYDYLLTFGGGTKLEIKR
binds | binds | C6 (antibody, human IgG1, kappa, V domains shown) VH: QVHLHQSGPELVKPGASVKISCKASGYTFTAYYINWVKQRPGQGLEWIGWIFPGSDSTYYNEKFKGRATLTVDKSSSTAYMLLNSLTSEDSAVYFCARDGELRGPFDYWGQGTTLTVSS VL: DIQMTQSPSSLSASLGGKVTITCKASQDINKYIAWYQHKPGKSPRLLIHYTSTLQAGIPSRFSGSGSGRDYSFSISNLEPEDSATYYCLQYDNLLTFGGGTKLEIKR
binds | binds | C3 (antibody, human IgG1, kappa, V domains shown) VH: QVQLQQSGPELVKPGASVKISCRSSGYTFTDYYINWVKQRPGQGLEWIGWIFPGSDYTYYNEKFKGKATLTVDKSSTTAYMLLSSLTSEDSAVYFCARDGGLRGPFDYWGQGTTLTVSS VL: DIQMTQSPSSLSASLGGKVTITCKASQDINKYIAWYQQKPGKGPRLLIHYTSTLQPGIPSRFSGSGSGRNSSFSISNLEPEDIATYYCLQYDNLHTFGGGTKLEIKR
binds | binds | C123 (antibody, human IgG1, kappa, V domains shown) VH: EVQLVESGGGLVKPGGSLKLSCAASGFTFSNFAMSWVRQTPAMRLESVATIVNGGINTYYPDTVKGRFTVSRDNAKNTLYLQMSSLRSEDTAIYYCARHDDFLYYAMDYWGQGTSVTVSS VL: QIVLTQSPAIMSASPGEKVTMTCSASSSVSYMFWYQQKPGSSPRLLIYDTSNLASGVPVRFSGSGSGTSYSLTISRLEAEDAATYYCQQWTSYPLTFGAGTKLDLKR

Results are given in words; binding and its absence hold for the method and conditions named. Binding can be weak; no strength is given.
